# Test results from patent US7481994B2, “Calcium biosensor polypeptides and methods of use” (The Board of Trustees of the Leland Stanford Junior …, priority 2005, dated 2009).
# System: HeLa cells
# Assay: Live-cell confocal imaging of fluorescent STIM1 distribution
# Format: cell-based, human
# Protocol: Panel A: YFP-STIM1 redistributes into punctate structures following Ca^2+ store depletion. HeLa cells were co-transfected with YFP-STIM1 and a CFP-tagged ER marker. CFP/YFP confocal images of the same cell were taken before (top two panels) and 8 minutes after (bottom two panels) histamine plus thapsigargin stimulation. The arrows point to peripheral sites rich in puncta. The magnified panels on the right show the co-localization of STIM1 with the ER marker before stimulation. […] HeLa cells were co-transfected with YFP-STIM1(D76A) and a CFP-ER marker. CFP/YFP confocal images of the same cell were taken before (top two panels) and 8 minutes after (bottom two panels) histamine plus thapsigargin stimulation. Scale bar=10 μm. […]
# FIG. 4 is a set of photographs and a graph showing that STIM1 exists in two localization states and is rapidly redistributed into puncta near the plasma membrane following Ca^2+ store depletion. […] Panel C: Kinetic analysis of the average relative fluorescence intensity in near plasma membrane YFP-STIM1 puncta (n=212; an exponential fit is shown). […]
# NF-ATc1 translocation was monitored in HeLa cells co-transfected with NF-ATc1-YFP and pECFP-Nuc plasmids with ImageXpress 5000A using a 10× objective. […] Images were analyzed using the MetaMorph software (Universal Imaging Corporation).
substance,measurement,setting,value
"YFP-STIM1 EF-hand mutant: YFP-conjugated EF-hand mutant of STIM1, D76A; calcium-insensitive marker",localization before stimulation,before histamine plus thapsigargin,already significantly pre-localized in puncta before stimulation
same,effect of Ca2+ store depletion on localization,histamine plus thapsigargin,no significant additional effect
